# Experimental data published in PubChem BioAssay AID488837 (National Center for Advancing Translational Sciences (NCATS), 2010).
# The chains behind the UniProt entries cited, without tags or fusion partners. Where a name states a change or a piece, a line headed by the entry shows the natural chain unless it says otherwise.
# UniProt O00167: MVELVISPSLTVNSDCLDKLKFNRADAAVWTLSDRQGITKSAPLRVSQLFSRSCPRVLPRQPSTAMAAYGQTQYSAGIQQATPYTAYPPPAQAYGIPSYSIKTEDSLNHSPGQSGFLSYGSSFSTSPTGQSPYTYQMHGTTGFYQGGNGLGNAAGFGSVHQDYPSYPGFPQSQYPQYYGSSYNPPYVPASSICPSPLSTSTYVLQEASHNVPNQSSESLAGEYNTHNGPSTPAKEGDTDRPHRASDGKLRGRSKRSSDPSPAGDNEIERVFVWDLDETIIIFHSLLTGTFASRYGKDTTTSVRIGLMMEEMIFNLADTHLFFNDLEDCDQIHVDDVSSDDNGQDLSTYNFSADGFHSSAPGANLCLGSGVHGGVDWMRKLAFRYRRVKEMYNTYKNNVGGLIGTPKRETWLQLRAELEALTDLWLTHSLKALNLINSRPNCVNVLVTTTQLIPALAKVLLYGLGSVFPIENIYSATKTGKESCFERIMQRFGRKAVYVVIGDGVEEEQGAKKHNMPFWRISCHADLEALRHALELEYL
# The whole screen tested about 330,000 compounds, of which about 20 (0.006%) were called active. Inconclusive results, whose numbers are uncertain, are shown with a selection of clear calls. Calls come from the whole dose curve; as a rule, active = well fitted inhibition curve with a large enough effect; inconclusive = small, poorly fitted or top-dose-only effect, or effect the other way; inactive = flat fitted curve, though single readings scatter. Potencies of inconclusive entries are doubtful fits and often do not repeat.
# Molecular target: Protein phosphatase EYA2 (Homo sapiens) (UniProt O00167)
# Assay: qHTS Assay for Inhibitors of the Phosphatase Activity of Eya2
# Details: recombinant Eya2, OMFP fluorescence dephosphorylation (OMFP is methylfluorescein phosphate); activity, negative = inhibition: at 76.9 µM (top of the series) unless noted
# Procedure, shortened: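 Eya2 protein (added as 0.2 uM solution) was preincubated with compound for 10 min at ambient temperature in 50 mM HEPES pH 7.5, 50 mM NaCl, 5 uM MgCl2, 0.05% BSA, 1 mM DTT. OMFP (added at 50 uM) then reacted 10 min; fluorescence read at 485/525 nm.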
# % is set by controls: 0 for no effect and ±100 for the full control effect; potency is the fitted concentration of half-maximal effect.
Structure (SMILES),"activity, negative = inhibition",Potency
CCC(C)N(C(=O)c1csnn1)C(C(=O)NCc1ccc(F)cc1)c1ccccc1 (centres undefined),inactive: -7.88%,
Cc1ccc(/C=N/NC(=O)c2nnn(-c3nonc3N)c2CSc2ccccc2)cc1,,"inconclusive: 89.1 µM [inhibitor, partial curve, poor fit]"
COc1ccc(-n2cc(C#N)c(=O)n(Cc3ccc(F)cc3)c2=O)cc1,,"inconclusive: 100 µM [inhibitor, single point]"
CCN1CCN(S(=O)(=O)c2c(C)cc(C)cc2C)CC1,,"inconclusive: 158 µM [inhibitor, partial curve]"
CCCOc1ccc(CSC(=N)N)cc1C(=O)OC,,"inconclusive: 100 µM [inhibitor, single point]"
COc1ccc(/C=[N+](\[O-])C2N(c3ccccc3)C(=S)SC2(C)C)cc1OC (centres undefined),,"inconclusive: 79.4 µM [inhibitor, single point]"
CN1CCN(c2ccc(C(=O)NC3CCCCC3)cc2[N+](=O)[O-])CC1,,"inconclusive: 100 µM [inhibitor, single point]"
O=C(CCN1CCN2CCCC2C1)N1c2ccccc2Sc2ccc(Cl)cc21 (centres undefined),,"inconclusive: 89.1 µM [inhibitor, single point]"
COc1cc(OC)c(-c2nn3c(-c4ccco4)nnc3s2)cc1OC,inactive: 0.653%,
O=C(CSc1ccccn1)Nc1nc2ccc(Br)cc2s1,,"inconclusive: 44.7 µM [inhibitor, partial curve]"
COc1ccccc1CNC(=O)CCC(=O)N1CCOc2ccc(Cl)cc21,,"inconclusive: 20 µM [inhibitor, single point]"
COc1ccc2nc(Nc3ccccc3)sc2c1,,"inconclusive: 100 µM [inhibitor, single point]"
c1ccc(Cn2c(SCc3nc4ccccc4s3)nnc2-c2ccco2)cc1,inactive: 7.04%,
CN(Cc1cccc(Cl)c1)C(=O)C1CCC(=O)N(C2CC2)C1 (centres undefined),inactive: -9.39%,
COc1ccc(Cl)cc1CSc1ncn[nH]1,,"inconclusive: 20 µM [inhibitor, partial curve, poor fit]"
CCCC(=O)NC(c1ccc(OCC)cc1)c1ccc(OC)c(OC)c1 (centres undefined),,"inconclusive: 22.4 µM [inhibitor, single point]"
N#Cc1cc(N)ccc1Sc1ccc(Cl)cc1,inactive: -9.52%,
CC(=O)Nc1ccc(S(=O)(=O)NCCC(=O)Nc2ccc(C)c(F)c2)cc1,inactive: -5.26%,
COc1ccc(N(CC(=O)N2CCN(Cc3ccc4c(c3)OCO4)CC2)S(=O)(=O)c2ccc(F)cc2)cc1,,"inconclusive: 22.4 µM [inhibitor, single point]"
COc1ccc(S(=O)(=O)N2CCCCCC2)cc1NC(=O)c1ccccc1F,,"inconclusive: 89.1 µM [inhibitor, partial curve]"
CCC(C)[C@H](NC(=O)N1CCC(C)CC1)C(=O)OC (some centres undefined),,"inconclusive: 100 µM [inhibitor, partial curve]"
CCOC(=O)Nc1ccc2nc(N3CCCCCC3)sc2c1,,"inconclusive: 100 µM [inhibitor, single point]"
CN1CCN(c2ncnc3scc(-c4ccccc4Cl)c23)CC1,inactive: 9.64%,

# Among those listed so far, 3 have two or more sulfur atoms:
Structure (SMILES),"activity, negative = inhibition",Potency
COc1ccc(/C=[N+](\[O-])C2N(c3ccccc3)C(=S)SC2(C)C)cc1OC (centres undefined),,"inconclusive: 79.4 µM [inhibitor, single point]"
O=C(CSc1ccccn1)Nc1nc2ccc(Br)cc2s1,,"inconclusive: 44.7 µM [inhibitor, partial curve]"
c1ccc(Cn2c(SCc3nc4ccccc4s3)nnc2-c2ccco2)cc1,inactive: 7.04%,

# Further results

Structure (SMILES),"activity, negative = inhibition",Potency
Cc1nc(NC(=O)COc2ccccc2)sc1C(=O)Nc1cccc(Cl)c1,,"inconclusive: 100 µM [inhibitor, single point]"
COC(=O)C1=C(C)NC(C)=C(C(=O)OC)C1c1ccc(C)o1,,"inconclusive: 100 µM [inhibitor, single point]"
CCOC(=O)C1=C(COC(=O)CCC(=O)c2ccc(C)cc2)NC(=O)NC1C (centres undefined),inactive: 3.4%,
C[C@H](CO)N1C[C@H](C)[C@@H](CN(C)C(=O)Nc2ccccc2)Oc2c(NC(=O)Cc3ccccc3)cccc2C1=O,,"inconclusive: 70.8 µM [inhibitor, single point]"
C[C@H](CO)N1C[C@H](C)[C@@H](CN(C)C)Oc2c(NC(=O)CCC(F)(F)F)cccc2C1=O,,"inconclusive: 70.8 µM [inhibitor, single point]"
Cc1nc2c(nnn2Cc2ccccc2)c(=O)n1-c1ccccc1,,"inconclusive: 22.4 µM [inhibitor, single point]"
O=C(/C=C/c1ccccc1Cl)NC(=S)Nc1ccccc1C(=O)NC1CCCCC1,,"inconclusive: 17.8 µM [inhibitor, single point]"
CC(C(=O)N(C)c1ccccc1)N1CCN(C(=O)c2ccccc2)CC1 (centres undefined),,"inconclusive: 891 µM [inhibitor, single point]"
Cc1cccc(CCN2CCN=C2Nc2ccccc2)c1,inactive: 5.1%,
CN(C)CCNc1ncnc2c1sc1nc(N3CCOCC3)c3c(c12)CC(C)(C)SC3,,"inconclusive: 100 µM [inhibitor, single point]"
COc1ccc(CC(=O)NCC2CCCN(Cc3cc(OC)cc(OC)c3)C2)cc1 (centres undefined),,"inconclusive: 2240 µM [inhibitor, partial curve, poor fit]"
C[C@H](NC(=O)c1ccccc1)C(=O)Nc1nc(-c2ccccn2)cs1,inactive: 1.46%,
COc1ccc(CCN=C(C)C2=C(O)C(c3ccccc3)OC2=O)cc1OC (centres undefined),,"inconclusive: 10 µM [inhibitor, partial curve, poor fit]"
Cc1cccc(OC(=O)CN2C(=O)C3C4CCC(C4)C3C2=O)c1C (centres undefined),inactive: -2.81%,
CCC1=[N+](C)c2cccc3cccc(c23)N1C,,"inconclusive: 100 µM [inhibitor, single point]"
NC(=O)c1ccccc1OCC(=O)Nc1ccc(Cl)c(Cl)c1,,"inconclusive: 89.1 µM [inhibitor, single point]"
COc1ccc(OC)c(C2C(C(=O)c3cccs3)=C(O)C(=O)N2CCN2CCOCC2)c1 (centres undefined),,"inconclusive: 79.4 µM [inhibitor, partial curve]"
COc1ccc(CNS(=O)(=O)NCc2ccccc2)cc1OC,,"inconclusive: 1410 µM [inhibitor, single point]"
COc1ccc(C)cc1NC(=O)CSc1ccc(-c2ccccn2)nn1,inactive: 4.02%,
O=C(/C=C/c1cccc([N+](=O)[O-])c1)NCCN1CCOCC1,,"inconclusive: 35.5 µM [inhibitor, single point]"
O=C1OC(c2ccc(F)cc2)=N/C1=C\c1ccc(Br)o1,,"inconclusive: 100 µM [inhibitor, single point]"
NC(=S)Nc1ccc(F)cc1F,,"inconclusive: 100 µM [inhibitor, single point]"
CCCCCCCC(=O)NNC(=O)c1ccc(F)cc1,,"inconclusive: 22.4 µM [inhibitor, single point]"

Structure (SMILES),"activity, negative = inhibition",Potency
CCOC(=O)c1c(C)nc2c(c1-c1cc(OC)ccc1OC)C(=O)CC(C)(C)C2,,"inconclusive: 126 µM [inhibitor, single point]"
N#CCC(=O)Nc1ccc(C(=O)NNC(=O)c2ccccc2-n2cccc2)cc1,,"inconclusive: 25.1 µM [inhibitor, single point]"
CCN(CC)Cc1nc2c(c(=O)[nH]1)C1(CCCC1)Cc1ccccc1-2,,"inconclusive: 20 µM [inhibitor, single point]"
CCOc1ccc(CNc2ccc3c(c2)ncn3C)cc1,,"inconclusive: 100 µM [inhibitor, single point]"
S=C(NCCc1ccc(Cl)cc1)NC1CCCCC1,inactive: -24%,
CCCc1cc(=O)[nH]c(NCCc2ccccc2)n1,,"inconclusive: 17.8 µM [inhibitor, single point]"
Cc1cc(C)c(S(=O)(=O)c2ccccc2)c(Cl)n1,inactive: -22.6%,
CCOc1ccc(N(CCCCO)C(=S)NC(=O)c2ccc(C)c(Br)c2)cc1,,"inconclusive: 89.1 µM [inhibitor, single point]"
COc1ccc(NC2C=CS(=O)(=O)C2)c(OC)c1 (centres undefined),inactive: 8.64%,
Cc1csc(SCC(=O)NC(=O)NC(C)(C)C)n1,,"inconclusive: 63.1 µM [inhibitor, single point]"
O=C(N/N=C/c1ccc([N+](=O)[O-])o1)c1ccc2c(c1)OCO2,inactive: -3.53%,
CC(C)(C)c1ccccc1NC(=O)NC1CCN(Cc2c(F)cccc2Cl)CC1,,"inconclusive: 100 µM [inhibitor, single point]"
COc1ccc(/C=N/NC(=O)c2ccccc2O)cc1Cn1nnc2ccccc21,,"inconclusive: 100 µM [inhibitor, single point]"
CCOC(=O)C1CCN(C/C=C/c2ccccc2OC)CC1,,"inconclusive: 25.1 µM [inhibitor, partial curve, poor fit]"
O=Cc1sc([O-])nc1-[n+]1ccc2ccccc2c1,,"inconclusive: 25.1 µM [inhibitor, partial curve, poor fit]"
CCOc1ccccc1OCCOc1ccccc1CC,,"inconclusive: 89.1 µM [inhibitor, single point]"
CS(=O)(=O)Nc1ccccc1C(=O)N1CCN(c2ccccc2)CC1,,"inconclusive: 89.1 µM [inhibitor, single point]"
CC(=O)NNc1nc2ccccc2s1,,"inconclusive: 22.4 µM [inhibitor, single point]"
Cc1cccc(OCc2nc(-c3ccc(Br)o3)no2)c1,,"inconclusive: 28.2 µM [inhibitor, partial curve, poor fit]"
COc1ccc(C(=O)NC(=S)Nc2cccc3nc(C)ccc23)cc1OC,,"inconclusive: 89.1 µM [inhibitor, single point]"
Cc1ccc(C(=O)NNc2cc(N3CCCC3)nc(N3CCCC3)n2)cc1,,"inconclusive: 28.2 µM [inhibitor, single point]"
O=S(=O)(NC1CCCC1)c1cccc(-c2nnc(-c3ccccc3)o2)c1,inactive: -4.33%,
CCN(C(=O)Cc1c(C(=O)O)n(C)c2ccccc12)c1cccc(C)c1,,"inconclusive: 22.4 µM [inhibitor, single point]"
